PubChem BioAssay AID1259254 – NCATS – 2017

- Test: 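Gene knock-downs that lead to re-replication, shown by excess G2 DNA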 (primary screen)
- System: human HCT116 colorectal cancer cells
- Reagents: single siRNA against human genes
- Timing: 3 days
- Measurement: 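Imaged Hoechst DNA stain sorts each cell into a cycle phase by DNA amount; per plate, G2 fraction set to 0% for non-targeting and 100% for GMNN siRNA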
- Direction: G2 robust z-score and G2 cells, % of GMNN control: higher = more G2 cells, more excess DNA replication
- Hit rule: 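Active siRNAs have a G2 robust z of 5 or more median absolute deviations over the median, which in these data means about 38% or higher of GMNN control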
Here is a random part of about 59,000 reagents. About 1,550 of all reagents (2.6%) count as active. 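G2 share is only a proxy for re-replication; each gene was hit by three separate siRNAs, and active genes were retested.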 Further read-outs or replicates are left out here. Not given: the amount of reagent.

gene	PubChem SID	G2 robust z-score	G2 cells, % of GMNN control	Call
LIFR	SID160776606	-0.803	-2.68	inactive
LIFR	SID160776607	-0.837	-2.92	inactive
LIFR	SID160776608	0.0321	3.19	inactive
PPIL4	SID160753182	0.832	8.82	inactive
PPIL4	SID160753184	0.599	7.18	inactive
PPIL4	SID160753185	-0.613	-1.35	inactive
PRRG1	SID160715090	1.4	12.8	inactive
PRRG1	SID160715091	0.639	7.46	inactive
PRRG1	SID160715092	-0.341	0.57	inactive
EIF4A1	SID160759213	1.62	14.4	inactive
EIF4A1	SID160759223	3.89	30.3	inactive
EIF4A1	SID160759234	0.674	7.71	inactive
ENTREP3	SID160729071	-1.7	-9	inactive
ENTREP3	SID160729072	1.12	10.9	inactive
ENTREP3	SID160729074	-0.969	-3.85	inactive
ALG1L6P	SID160725085	0.707	7.94	inactive
ALG1L6P	SID160764317	1.61	14.3	inactive
ALG1L6P	SID160764318	-0.233	1.33	inactive
HAUS7	SID160743797	1.08	10.6	inactive
HAUS7	SID160743798	1.14	11	inactive
HAUS7	SID160743799	1.77	15.4	inactive
EXOSC5	SID160731567	1.76	15.4	inactive
EXOSC5	SID160745287	-0.393	0.204	inactive
EXOSC5	SID160745288	3.1	24.8	inactive
PPM1E	SID160731879	-0.944	-3.67	inactive
PPM1E	SID160731888	-0.314	0.758	inactive
PPM1E	SID160731898	-0.117	2.15	inactive
PRSS54	SID160761626	1.78	15.5	inactive
PRSS54	SID160761627	-0.474	-0.367	inactive
PRSS54	SID160761629	1.05	10.3	inactive
